# The supplement of paper PMC12873370
# Some of the results follow. Repeats are few or missing, and single values can be far off.
# Assays:
# [1] = test system: MEPP (mouse ovarian epithelium Trp53/Pten KO); assay: cell viability relative to untreated (fraction); higher = less growth inhibition; conditions: 5 µM; 3 days
# [2] = test system: PREPP (mouse prostate epithelium Trp53/Pten KO); assay: as above; conditions: 5 µM; 3 days
smiles,measurement,setting,value
O=c1cc(-c2ccccc2)oc2ccccc12,cell viability,[1],1.18
same,cell viability,[2],0.974
CC1(C)S[C@@H]2[C@H](NC(=O)COc3ccccc3)C(=O)N2[C@H]1C(=O)O,cell viability,[1],0.871
same,cell viability,[2],1.16
COc1ccc([C@@H]2CC(=O)c3c(O)cc(O)cc3O2)cc1O,cell viability,[1],1.4
same,cell viability,[2],1.35
N[C@@H](Cc1c[nH]c2ccccc12)C(=O)O,cell viability,[1],1.14
same,cell viability,[2],0.954
C=C1/C(=C\C=C2/CCC[C@]3(C)[C@@H]([C@H](C)CCCC(C)(C)O)CC[C@@H]23)C[C@@H](O)C[C@@H]1O,cell viability,[1],0.829
same,cell viability,[2],0.949
COc1ccc2[nH]cc(CCNC(C)=O)c2c1,cell viability,[1],1.09
same,cell viability,[2],0.866

# 2 entries from above in another layout.
smiles	measurement	setting	value
N[C@@H](Cc1c[nH]c2ccccc12)C(=O)O	cell viability	[2]	0.954
COc1ccc2[nH]cc(CCNC(C)=O)c2c1	cell viability	[2]	0.866
